Some test systems named below: MZ2-MEL; MeWo; RPMI7951; RVH-421; SkMel28; SkMel30; SkMel5; UACC257; UACC62; WM115; WM1716; WM1745; WM3526; WM3619; WM451Lu.
Assay in all cases: cleaved PARP positive nuclei fraction relative to DMSO control; melanoma cells; higher = more apoptosis
Holding throughout (details): library dose: low library concentration; 72 h

Each structure is given as a SMILES string. The list shows a part of the results. Many values rest on one well or one pass, so single values are uncertain.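 The apoptosis fraction was the count of cleaved-PARP antibody-stained nuclei relative to all DNA-stained nuclei, imaged in 1,536-well plates. Screening doses were set so most cells survived, and baseline and induced cleaved-PARP levels vary greatly across cell lines.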

`NCC(=O)Nc1ccc(-n2nc(C(F)(F)F)cc2-c2ccc3c(ccc4ccccc43)c2)cc1` + O=S(=O)(c1ccccc1)N(CC(F)(F)F)c1ccc(C(O)(C(F)(F)F)C(F)(F)F)cc1 [T0901317] (first compound 1 µM, partner dose 1.4 µM): the “cleaved PARP positive nuclei fraction” value in the assay on MZ2-MEL turned out to be 151%; in the assay on MeWo, 374%; in the assay on RPMI7951, 77.7%; in the assay with RVH-421, 12.8%; in the assay on SkMel28, 174%; with SkMel30 it was 16.2%. For the same molecule, the “cleaved PARP positive nuclei fraction” value in the assay with SkMel5 is 78.3%; with UACC257, 134%; in the assay with UACC62, 151%; in the assay with WM115, 157%; with WM1716 it was 51.3%; with WM1745, 1400%. Moreover, the entries for the “cleaved PARP positive nuclei fraction” value in the assay on WM3526, in the assay on WM3619 and in the assay with WM451Lu were 816%, 105% and 304%, respectively.

Regarding `Oc1cc(-c2nc(-c3ccccc3)[nH]c2-c2ccncc2)ccc1Cl` + CC(C)CCN1c2nc(Nc3cc(F)c(O)c(F)c3)ncc2N(C)C(=O)C1C [BID1870] (first compound 0.2 µM, partner dose 0.2 µM), the “cleaved PARP positive nuclei fraction” value with MZ2-MEL is 48.1%; with MeWo it was 106%; with RPMI7951, 90.1%; in the assay on RVH-421, 77.2%; with SkMel28 it was 203%; in the assay on SkMel30, 198%. The “cleaved PARP positive nuclei fraction” value was found to be 65.1% in the assay with SkMel5; 59.9% with UACC257; 173% with UACC62; 288% in the assay with WM115; 43.6% in the assay with WM1716; 130% in the assay with WM1745. In addition, the “cleaved PARP positive nuclei fraction” value with WM3526 turned out to be 231%; in the assay with WM3619, 93.8%; in the assay with WM451Lu, 130%.

As for `NCC(=O)Nc1ccc(-n2nc(C(F)(F)F)cc2-c2ccc3c(ccc4ccccc43)c2)cc1` + Cc1cc([N+](=O)[O-])ccc1NS(=O)(=O)c1cc(Cl)ccc1Cl [FH535] (first compound 1 µM, partner dose 1 µM), the “cleaved PARP positive nuclei fraction” value turned out to be 116% in the assay on MZ2-MEL; 181% with MeWo; 64.4% in the assay with RPMI7951; 29.2% in the assay with RVH-421; 114% in the assay on SkMel28; 49.3% with SkMel30. In addition, the “cleaved PARP positive nuclei fraction” value in the assay on SkMel5 worked out at 72.6%; in the assay on UACC257, 180%; with UACC62 it was 139%; in the assay on WM115, 141%; with WM1716 it was 153%; in the assay with WM1745, 214%. Besides, the entries for the “cleaved PARP positive nuclei fraction” value in the assay with WM3526, with WM3619 and in the assay on WM451Lu were 132%, 82.4% and 81.6%, respectively.

These data come from the supplement of paper PMC4604168 (melanoma cell lines).
